For at least one entry, the source does not settle the construct or the ends of the probe. Weaker means in comparison with the reference protein, sequence or condition of that experiment.
How the values were obtained:
[1] = target: GST-Pax6 paired domain (PD) (UniProt P63015); assay: EMSA; details: EMSA: 2 ug protein, 20000 cpm 32P probe, 1 ug poly(dI-dC), 5% TBE polyacrylamide gel, recombinant protein, label: 32P 5' end
[2] = tested on: GST-Pax6(5a) paired domain (PD5a); assay: EMSA; details: not bound at all or very weakly; EMSA: 2 ug protein, 20000 cpm 32P probe, 1 ug poly(dI-dC), 5% TBE polyacrylamide gel; recombinant protein; label: 32P 5' end

By UniProt entry, the sequences of proteins in these tests, tags left out. Residues count along the entry.
UniProt P63015, 4-130: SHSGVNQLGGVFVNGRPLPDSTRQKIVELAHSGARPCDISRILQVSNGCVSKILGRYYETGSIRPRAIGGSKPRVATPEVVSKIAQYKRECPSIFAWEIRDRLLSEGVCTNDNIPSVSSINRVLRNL

| Sequence | binding result ([1]; binds, less efficiently than OPT and MUT) | binding result [2] | binding result [1] |
| --- | --- | --- | --- |
| GGAGGAAGCTACGCTCAATGAGATGTTTCGAGAGGTGGAGGAG (double strand) [mDkk3 5aCON WT] | binds more weakly | binds more weakly | – |
| CATCTGGGGGCGCCCAGATCATCAATTCGGAACGCTCCGGGCAAGAGGGG (double strand) [mDkk3 BSAP MUT] | – | – | binds more weakly |
